Data taken from PubChem BioAssay AID2685 (National Center for Advancing Translational Sciences (NCATS), 2010).
The list shows a part of the results. Shown are side measurements of this screen, not its main read-out; they come without a call. Compounds called inactive in the main read-out are mostly missing here. Potencies come from curve fits of mixed quality, noted in brackets.

Assay: qHTS Assay for Lipid Storage Modulators in Drosophila S3 Cells;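 for cell number change: cells counted by Cell Tracker Red CMTPX staining in the red channel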
Conditions: BODIPY lipid droplet fluorescence, 18-24 h; for cell number change: measured here: cell count max response, cells fed with added oleic acid
How it was run: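 Drosophila S3 cells got compounds at several concentrations plus oleic acid (400 uM solution). Laser-scanning cytometry with 488 nm excitation read lipid droplets at 500-530 nm and cells at 575-640 nm. Percent activity was relative to 20 uM Triacsin C.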

[1] = measured here: cell number channel AC50, cells fed with added oleic acid
[2] = measured here: lipid fluorescence (Fed channel) AC50, cells fed with added oleic acid

Structure (SMILES) | cell number change | AC50 [1] | AC50 [2]
CCc1ccc(CC)c(S(=O)(=O)Nc2ccc(O)c(C(=O)O)c2)c1 | -52.2% | 18.4 µM [falling, partial curve, poor fit] | 5.17 µM [falling, partial curve]
O=C(C(Cl)c1ccccc1)N1CCOCC1 (stereo not given) | 26.1% | – | 0.58 µM [rising, single point]
CCOC1=NN(c2ncc(C(F)(F)F)cc2Cl)C(=O)C1 | -42.1% | – | 25.9 µM [falling, single point]
CCOC(=O)c1c(C)[nH]c(C(=O)N2CCN(CC)CC2)c1C | 3.42% | – | –
O=C(OCCc1cc2ccccc2c(=O)o1)c1ccc(F)cc1 | -33.5% | 1.84 µM [falling, partial curve, poor fit] | 4.11 µM [falling, partial curve, poor fit]
COCc1cc(C)nc(N2CCN(c3ccccc3)CC2)c1C#N | 36.1% | 0.517 µM [rising, full curve, poor fit] | –
COc1cc(OC)c2c(C)c(Cl)c(=O)oc2c1 | 4.35% | – | –
Cc1nc(SCC(=O)N2CCN(C(=O)c3ccco3)CC2)c2c(C)c(C)sc2n1 | -18.5% | – | 1.84 µM [rising, single point]
Nc1c(C(=O)Nc2nc3ccccc3s2)sc2nc(-c3cccs3)ccc12 | -49.3% | 2.06 µM [falling, full curve, poor fit] | 1.64 µM [falling, full curve]
CCCCCn1c(N)c(-c2nc3ccccc3s2)c2c([N+](=O)[O-])nn(CC)c(=O)c21 | – | 0.00461 µM [rising, full curve, poor fit] | –
CCCc1nc(SCC(=O)N2CCCC2)c2c(=O)n(C)c(=O)n(C)c2n1 | -39.3% | 8.2 µM [falling, partial curve, poor fit] | 5.17 µM [falling, full curve]
Cc1c(NC(=S)NC(=O)c2sc3ccccc3c2Cl)cccc1C(=O)O | 8.98% | – | –
COc1ccc(/C=C/C(=O)Oc2ccc(C)cc2)cc1 | 10.5% | – | 2.91 µM [falling, single point]
CN(C)CCN(C(=O)CCS(=O)(=O)c1ccccc1)c1nc2cc3c(cc2s1)OCO3 | -6.74% | – | 1.84 µM [falling, full curve]
CCOC(=O)/C=C1\SCC(=O)N1CC(=O)Nc1ccc(OC)c(OC)c1 | 57.2% | 16.4 µM [rising, single point] | –
Cc1cc(NCC(C)C)n2ncnc2n1 | -66.9% | 29.1 µM [falling, single point] | 18.4 µM [falling, partial curve]
COc1ccc(-c2nnn(CC(=O)N(C3CCCCC3)C(C)C(=O)NC3CCCC3)n2)cc1OC (stereo not given) | 11.2% | – | 2.31 µM [rising, full curve]
Cc1cc(C(=O)CSc2nc(N)cc(=O)[nH]2)c(C)n1-c1ccc(OC(F)F)cc1 | -99.5% | 29.1 µM [falling, single point] | –
O=C(NCc1ccccn1)c1cc2c(ccc3ccccc32)oc1=O | 34.8% | 31.6 µM [rising, single point] | 35.5 µM [rising, single point]
COCCn1c(SCc2nc3sc(C(=O)OC)c(C)c3c(=O)[nH]2)nc2ccccc21 | 6.14% | – | 4.11 µM [falling, partial curve]
O=C(Nc1ccccc1OC(F)F)C1CCCN1C(=O)c1cccs1 (stereo not given) | 0.627% | – | –

Structure (SMILES) | cell number change | AC50 [1] | AC50 [2]
COC(=O)C(NNc1ccccc1)(NC(=O)c1ccccc1F)C(F)(F)F (stereo not given) | 6.84% | – | 0.00461 µM [rising, full curve, poor fit]
CCOCCc1nnc(NC(=O)Cc2ccccc2)s1 | – | – | 6.51 µM [falling, single point]
CSc1nc(-c2ccccc2)nn1S(=O)(=O)c1ccc(Cl)cc1 | -0.45% | – | 0.13 µM [falling, full curve, poor fit]
Cc1nn(Cc2c(F)c(F)c(F)c(F)c2F)c(C)c1NC(=O)c1c([N+](=O)[O-])cnn1C | 19.4% | – | 2.91 µM [rising, partial curve]
CCCCCC(=O)Nc1ccc2oc(-c3ccncc3)nc2c1 | 1.54% | – | –
COc1cc(NC(=O)C2CCN(S(=O)(=O)c3cccc4nonc34)CC2)cc(OC)c1 | -8.62% | – | 0.092 µM [rising, partial curve, poor fit]
O=C(CSc1nnc(-c2ccncc2)n1CC1CCCO1)NCc1ccccc1 (stereo not given) | 19% | – | –
Cc1cc(N)n(-c2ccc(Cl)cc2)n1 | -7.01% | – | 0.355 µM [rising, full curve, poor fit]
COc1ccc(NC(=S)Nc2cccc3cnccc23)cc1 | -4.1% | – | 0.092 µM [rising, full curve, poor fit]
COc1ccc(NS(=O)(=O)c2ccc(NC(=O)c3ccccc3)cc2)nn1 | 34.5% | 18.4 µM [rising, single point] | 29.1 µM [rising, single point]
CCCCn1c(NCCC)nc2c1c(=O)[nH]c(=O)n2C | 5.62% | – | –
Cn1c(SCC(=O)N2CCCCC2)nc2c([nH]c3ccccc32)c1=O | – | 0.092 µM [rising, partial curve] | 0.0517 µM [rising, full curve, poor fit]
CCSc1nnc(-c2ccc(S(=O)(=O)NCc3cccs3)cc2)o1 | -26.7% | 6.51 µM [falling, partial curve, poor fit] | 16.4 µM [rising, single point]
COc1ccc(C(C(=O)NC2CCCC2)N(CCCO)C(=O)c2snc(C(N)=O)c2N)cc1 (stereo not given) | – | – | 0.58 µM [rising, single point]
CC(=O)C(Sc1nc(N(C)C)nc(N(C)C)n1)C(=O)Nc1ccccc1 (stereo not given) | -35% | – | –
COc1ccc(CSCC(=O)Nc2ccccc2SC)cc1 | 19.9% | – | 23.1 µM [rising, single point]
Cc1cccc(S(=O)(=O)NCC2CCCO2)c1 (stereo not given) | 14.3% | – | –
COC(=O)c1cc2ccccn2c2c(C(=O)OC)c(C(=O)OC)cc1-2 | 28.4% | 0.461 µM [rising, full curve, poor fit] | 0.651 µM [rising, partial curve, poor fit]
NC(=O)c1cc([N+](=O)[O-])ccc1NCc1ccc(O)cc1 | -22.1% | – | –
COc1ccccc1NC(=S)NCc1ccc2c(c1)OCO2 | 3.18% | – | 9.2 µM [rising, single point]
CC1(C)C2CCC1(CS(=O)(=O)N1CCN(c3ccc(F)cc3)CC1)C(=O)C2 (stereo not given) | -30.2% | 1.84 µM [falling, full curve, poor fit] | 6.51 µM [falling, single point]

Structures listed so far that have a nitro group on carbon:
Structure (SMILES) | cell number change | AC50 [1] | AC50 [2]
CCCCCn1c(N)c(-c2nc3ccccc3s2)c2c([N+](=O)[O-])nn(CC)c(=O)c21 | – | 0.00461 µM [rising, full curve, poor fit] | –
Cc1nn(Cc2c(F)c(F)c(F)c(F)c2F)c(C)c1NC(=O)c1c([N+](=O)[O-])cnn1C | 19.4% | – | 2.91 µM [rising, partial curve]
NC(=O)c1cc([N+](=O)[O-])ccc1NCc1ccc(O)cc1 | -22.1% | – | –

Three structures already listed, ordered by number of heavy atoms, smallest number first.
Structure (SMILES) | cell number change | AC50 [1] | AC50 [2]
Cc1cc(N)n(-c2ccc(Cl)cc2)n1 | -7.01% | – | 0.355 µM [rising, full curve, poor fit]
O=C(Nc1ccccc1OC(F)F)C1CCCN1C(=O)c1cccs1 (stereo not given) | 0.627% | – | –
Nc1c(C(=O)Nc2nc3ccccc3s2)sc2nc(-c3cccs3)ccc12 | -49.3% | 2.06 µM [falling, full curve, poor fit] | 1.64 µM [falling, full curve]

Next records follow.

Structure (SMILES) | cell number change | AC50 [1] | AC50 [2]
CCOC(=O)C1CCN(C(=O)COC(=O)c2ccc3c(c2)C(=O)N(c2ccc(OCC)cc2)C3=O)CC1 | – | 0.731 µM [rising, single point] | 0.58 µM [rising, single point]
COCCNC(=O)C(c1ccc(C)cc1)N(C(=O)CCC(=O)Nc1ccccn1)c1ccc(F)cc1 (stereo not given) | -21.1% | – | –
CC(=O)O/N=C/c1c(Cl)n(C)c2ccccc12 | 9.12% | – | 0.651 µM [falling, single point]
Cc1ccc(S(=O)(=O)N2CCN(C)CC2)c(C)c1N(C)S(=O)(=O)c1ccc(Cl)cc1 | 9.44% | – | –
Cc1cccc(C(=O)O/N=C(\N)c2ccc(Br)cc2)c1 | – | 0.164 µM [rising, full curve, poor fit] | –
CCn1c(SCC(=O)N(C)CC(=O)Nc2ccc(F)c(F)c2F)nnc1-c1ccco1 | 35.2% | 13 µM [rising, partial curve, poor fit] | 29.1 µM [rising, single point]
O=C(c1cc(-c2ccc(Cl)cc2)on1)N1CCOCC1 | -82.7% | 29.1 µM [falling, partial curve, poor fit] | 0.651 µM [falling, single point]
Cc1ccc(SCC(=O)OCC(=O)Nc2ccc3[nH]c(=O)[nH]c3c2)cc1C | -12.4% | 6.51 µM [falling, single point] | –
Cc1ccc(C)c(OCc2cc(C(=O)NC(C)c3cnn(C)c3)no2)c1 (stereo not given) | -2.12% | – | 29.1 µM [rising, single point]
O=C(CN1CCCCC1)NNC(=O)c1cccc(Br)c1 | -19% | – | –
CCc1ccc(S(=O)(=O)NC(=S)Nc2ccccc2)cc1 | -0.993% | – | –
COC(=O)c1ccc(CSc2nnnn2-c2ccccc2)o1 | 63.2% | 8.2 µM [rising, partial curve, poor fit] | 3.66 µM [rising, full curve]
COc1ccc(/C=C(/NC(=O)c2ccccc2OC)C(=O)Nc2ccc(C(=O)O)cc2)cc1 | 9.19% | – | 3.26 µM [falling, single point]
Fc1ccc(C2NC(=S)NC3=C2N2CCC3CC2)cc1 (stereo not given) | 9% | – | 6.51 µM [falling, single point]
COc1cc(OC)cc(C(=O)NCC(=O)Nc2ccc(-c3ccccc3)cc2)c1 | 23.9% | – | 11.6 µM [falling, single point]
C=CCn1c(=NC(=O)CC)n(C)c2ccccc21 | -7.46% | – | 0.058 µM [falling, full curve]
Cc1csc(SCC(=O)NC2CCC(C)CC2)n1 (stereo not given) | – | – | 0.00517 µM [rising, full curve, poor fit]
CCN1CCN(c2nc3ccccn3c(=O)c2C=O)CC1 | – | 0.82 µM [rising, single point] | –
CCN(CC)S(=O)(=O)c1ccc2oc(Nc3ccc4c(c3)OCCO4)nc2c1 | – | 6.51 µM [rising, single point] | 0.58 µM [falling, single point]
